Measured values as given in paper PMC10798561.
Residue numbers refer to the chain shown, from its start. Results are given in words; binding and its absence hold for the method and conditions named. For part of these data: In cells and extracts the contact can be indirect. Some entries that bind do so weakly or less than the wild type. For part of these data: Sequences can lack the tags named with a protein.

The chains behind the UniProt entries cited, without tags or fusion partners. Where a name states a change or a piece, a line headed by the entry shows the natural chain unless it says otherwise.
UniProt P04608: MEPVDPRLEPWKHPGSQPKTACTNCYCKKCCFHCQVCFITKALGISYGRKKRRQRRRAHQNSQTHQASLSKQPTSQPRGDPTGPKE
UniProt O60563: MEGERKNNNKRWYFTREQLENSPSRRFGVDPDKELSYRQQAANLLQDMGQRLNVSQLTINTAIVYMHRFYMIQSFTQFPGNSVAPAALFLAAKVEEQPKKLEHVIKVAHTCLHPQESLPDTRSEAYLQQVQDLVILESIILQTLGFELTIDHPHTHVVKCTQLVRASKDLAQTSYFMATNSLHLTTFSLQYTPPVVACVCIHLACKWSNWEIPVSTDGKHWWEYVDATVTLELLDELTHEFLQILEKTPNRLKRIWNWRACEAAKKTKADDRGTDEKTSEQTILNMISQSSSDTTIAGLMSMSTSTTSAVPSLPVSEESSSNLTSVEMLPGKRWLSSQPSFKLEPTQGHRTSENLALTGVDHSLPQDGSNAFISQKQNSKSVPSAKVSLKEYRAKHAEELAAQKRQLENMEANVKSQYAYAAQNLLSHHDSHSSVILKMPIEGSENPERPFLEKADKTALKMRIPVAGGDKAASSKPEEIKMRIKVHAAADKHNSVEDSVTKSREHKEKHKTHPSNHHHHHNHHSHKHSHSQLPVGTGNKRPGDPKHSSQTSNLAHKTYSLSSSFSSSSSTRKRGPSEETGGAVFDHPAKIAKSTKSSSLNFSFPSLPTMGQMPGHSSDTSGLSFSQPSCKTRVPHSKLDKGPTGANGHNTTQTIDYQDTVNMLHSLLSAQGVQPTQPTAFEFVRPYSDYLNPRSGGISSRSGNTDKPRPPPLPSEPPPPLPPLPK

Legend:
[1] = target: T1, TRAF6 TRAFC (residues 346 to 504) fused to maltose-binding protein (UniProt Q9Y4K3); test: pull-down; in vitro pull-down, Tat truncations fused to GST and TRAF6 C-terminal truncations fused to MBP (fig. S2A); taken as MBP-TRAF6 held, since the reciprocal assay is said to use it as prey; both purified
T1 sequence: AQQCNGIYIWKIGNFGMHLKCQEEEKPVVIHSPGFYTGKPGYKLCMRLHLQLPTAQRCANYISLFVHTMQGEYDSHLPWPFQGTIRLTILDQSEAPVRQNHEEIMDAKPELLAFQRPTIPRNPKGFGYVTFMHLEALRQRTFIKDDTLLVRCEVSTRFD

TRAF6 C366A = TRAF6 C366A (UniProt Q9Y4K3); test: co-IP; transfected HEK293T cells, Strep-tagged Tat and Flag-tagged TRAF6 or TRAF6 mutants, 48 h; which tag was precipitated is not told (Fig. 3C, fig. S5B, fig. S5C, fig. S6B)
TRAF6 C403A = TRAF6 C403A (UniProt Q9Y4K3); test: as above
TRAF6 F471A = target: T2, TRAF6 F471A (UniProt Q9Y4K3); test: as above
T2 sequence: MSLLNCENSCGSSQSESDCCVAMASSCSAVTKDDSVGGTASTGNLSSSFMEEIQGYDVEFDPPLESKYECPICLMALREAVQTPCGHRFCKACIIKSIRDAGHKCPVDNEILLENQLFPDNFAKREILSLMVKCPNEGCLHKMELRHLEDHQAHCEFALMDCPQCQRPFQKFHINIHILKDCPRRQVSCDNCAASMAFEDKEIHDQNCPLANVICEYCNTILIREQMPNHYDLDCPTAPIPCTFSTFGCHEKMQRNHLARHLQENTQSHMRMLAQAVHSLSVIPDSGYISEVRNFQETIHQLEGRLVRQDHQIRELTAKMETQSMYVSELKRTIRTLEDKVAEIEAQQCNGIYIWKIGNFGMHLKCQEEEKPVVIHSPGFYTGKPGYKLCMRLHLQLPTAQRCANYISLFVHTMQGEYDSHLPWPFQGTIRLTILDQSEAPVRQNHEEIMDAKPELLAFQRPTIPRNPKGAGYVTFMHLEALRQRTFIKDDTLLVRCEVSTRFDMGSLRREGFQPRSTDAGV

TRAF6 F471A/Y473A = TRAF6 F471A/Y473A (UniProt Q9Y4K3); test: as above
TRAF6 L77A, Flag-tagged = TRAF6 L77A, Flag-tagged (UniProt Q9Y4K3); test: as above
TRAF6 Q82A, Flag-tagged = TRAF6 Q82A, Flag-tagged (UniProt Q9Y4K3); test: as above
TRAF6 Y473A = target: T3, TRAF6 Y473A (UniProt Q9Y4K3); test: as above
T3 sequence: T2 sequence with A471F, Y473A

TRAF2, Flag-tagged = target: T4, TRAF2, Flag-tagged (UniProt Q12933); test: co-IP; HEK293T (Fig. 2C) or HEK293 (Fig. 4E) cells transfected 48 h with Tat-Strep and Flag-tagged TRAF proteins; precipitation with anti-Flag, blots with anti-Flag or anti-Strep; one lane of Fig. 2C tests dependence on RNA
T4 sequence: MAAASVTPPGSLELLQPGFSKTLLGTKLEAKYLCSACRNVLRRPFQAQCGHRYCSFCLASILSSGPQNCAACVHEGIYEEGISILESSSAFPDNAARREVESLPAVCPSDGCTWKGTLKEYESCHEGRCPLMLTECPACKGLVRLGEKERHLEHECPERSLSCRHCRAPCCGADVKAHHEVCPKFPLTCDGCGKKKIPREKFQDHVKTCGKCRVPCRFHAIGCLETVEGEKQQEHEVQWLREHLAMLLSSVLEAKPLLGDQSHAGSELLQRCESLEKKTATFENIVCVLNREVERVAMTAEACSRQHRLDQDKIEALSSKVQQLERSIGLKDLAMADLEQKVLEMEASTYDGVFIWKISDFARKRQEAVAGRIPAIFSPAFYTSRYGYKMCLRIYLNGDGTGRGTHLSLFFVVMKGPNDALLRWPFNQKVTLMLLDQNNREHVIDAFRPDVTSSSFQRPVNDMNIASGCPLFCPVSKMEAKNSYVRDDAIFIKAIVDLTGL

[2] = target: HIV-1 HXB2 Tat, Strep-tagged (HIV-1 (HXB2)) (UniProt P04608); test: co-IP; HEK293T cells, association of CycT1 or Cdk9 with HIV-1 Tat upon transient transfection with TRAF6, TRAF2, TRAF3 or vector (Fig. 5A)
[3] = target: HIV-1 HXB2 Tat, Strep-tagged (HIV-1 (HXB2)) (UniProt P04608); test: co-IP; HEK293T cells, association of TRAF6 and HIV-1 Tat upon transient transfection with CycT1 and Cdk9 (Fig. 5B)

## HIV-1 HXB2 Tat residues 1 to 20 fused to GST (from UniProt P04608 1-20) (domain or fragment)
[1]
  binding: no binding

## HIV-1 HXB2 Tat, Strep-tagged (from UniProt P04608 1-86)
TRAF6 C366A
  binding: binds
TRAF6 C403A
  binding: binds
TRAF6 F471A
  binding: binds
TRAF6 F471A/Y473A
  binding: binds
TRAF6 L77A, Flag-tagged
  binding: binds
TRAF6 Q82A, Flag-tagged
  binding: binds
TRAF6 Y473A
  binding: binds
TRAF2, Flag-tagged
  binding: no binding

## HIV-1 HXB2 Tat residues 1 to 72 fused to GST (from UniProt P04608 1-72) (domain or fragment)
[1]
  binding: binds weakly

## P-TEFb (CycT1 and Cdk9) found with Tat in HEK293T cells (from UniProt O60563 1-726; P50750 1-372) (complex)
[2]
  binding: binds

## P-TEFb (CycT1 and Cdk9), overexpressed (from UniProt O60563 1-726; P50750 1-372) (complex)
[3]
  binding: binds
